Molecular target: T1, hen egg white lysozyme (hen, UniProt P00698 19-147, biotinylated (HEL-b); sites not stated)
T1 construct: also called lyzozyme; HEL-b (biotinylated)
Test: yeast display selection

binding result | Binder
binds | SEQ ID NO 51 (designed binder) VSDVPRDLEVVAATPTSLLISWDAPAVTVRYYRITYGESYRRGQSGQEFTVPGSKSTATISPSQSGVDYTITVYAVTGRGESPASSKPISINYSYAS
binds | SEQ ID NO 68 (designed binder) VSDVPRDLEVVAATPTSLLISWDAPAVTVRYYRITYGEYYRSSLPQEFTVPGSKSTATISYYYPSVDYTITVYAVTGRGESPASSKPISINYSRYY

Source: US9296810 (Novartis, dated 2016)
